In paper PMC11671593:
These are yes or no findings as the source states them, for the method shown. In cells and extracts the contact can be indirect. Binding calls can cover weak binding; strength is not graded here.

Molecular target: NTD domain of RBPJ
Assay: co-IP; full-length and truncated plasmids of TRIM59 and RBPJ transfected into HEK-293T cells; Co-IP

- binding: binds
B1: TRIM59, full-length plasmid in HEK-293T cells (protein, UniProt Q8IWR1 1-403)
chain: MHNFEEELTCPICYSIFEDPRVLPCSHTFCRNCLENILQASGNFYIWRPLRIPLKCPNCRSITEIAPTGIESLPVNFALRAIIEKYQQEDHPDIVTCPEHYRQPLNVYCLLDKKLVCGHCLTIGQHHGHPIDDLQSAYLKEKDTPQKLLEQLTDTHWTDLTHLIEKLKEQKSHSEKMIQGDKEAVLQYFKELNDTLEQKKKSFLTALCDVGNLINQEYTPQIERMKEIREQQLELMALTISLQEESPLKFLEKVDDVRQHVQILKQRPLPEVQPVEIYPRVSKILKEEWSRTEIGQIKNVLIPKMKISPKRMSCSWPGKDEKEVEFLKILNIVVVTLISVILMSILFFNQHIITFLSEITLIWFSEASLSVYQSLSNSLHKVKNILCHIFYLLKEFVWKIVSH
